Compound in this test: Nc1ncnc2c1ncn2[C@@H]1O[C@H](COP(=O)(O)OP(=O)(O)OP(=O)(O)O)[C@@H](O)[C@H]1O [adenosine triphosphate]
In words: NP40-soluble protein abundance relative to vehicle (solubility fold change) (ratio); higher = more soluble protein in presence of ATP. A digest of the protocol:
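Values are fold changes against the detergent-processed vehicle, based on vsn-normalised intensities. Jurkat crude lysate was treated at eight concentrations from 0.1 to 10 mM (10 min at room temperature, then 3 min at 37 °C), solubilised with 0.8% NP40 and benzonase, ultracentrifuged and analysed by TMT-labelled LC-MS/MS over three independent experiments.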

Chains of the proteins cited; added tags and fusions are not shown. Lines headed by an entry give the natural chain unless they say otherwise; changes in a name come on top.
UniProt P36871: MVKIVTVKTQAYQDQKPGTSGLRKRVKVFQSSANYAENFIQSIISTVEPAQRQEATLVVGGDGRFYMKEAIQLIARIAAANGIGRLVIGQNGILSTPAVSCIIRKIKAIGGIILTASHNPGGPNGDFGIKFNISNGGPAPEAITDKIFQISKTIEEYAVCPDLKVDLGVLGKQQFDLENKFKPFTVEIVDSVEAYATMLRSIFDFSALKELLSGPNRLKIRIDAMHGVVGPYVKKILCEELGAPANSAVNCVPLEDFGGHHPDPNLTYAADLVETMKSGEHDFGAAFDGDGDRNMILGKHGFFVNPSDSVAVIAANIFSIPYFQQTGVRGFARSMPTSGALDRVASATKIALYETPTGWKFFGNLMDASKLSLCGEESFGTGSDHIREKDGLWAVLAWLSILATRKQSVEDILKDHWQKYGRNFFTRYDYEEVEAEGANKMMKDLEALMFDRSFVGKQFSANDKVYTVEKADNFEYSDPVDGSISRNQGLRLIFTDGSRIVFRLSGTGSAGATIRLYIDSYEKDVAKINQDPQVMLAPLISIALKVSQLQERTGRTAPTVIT
UniProt P40121: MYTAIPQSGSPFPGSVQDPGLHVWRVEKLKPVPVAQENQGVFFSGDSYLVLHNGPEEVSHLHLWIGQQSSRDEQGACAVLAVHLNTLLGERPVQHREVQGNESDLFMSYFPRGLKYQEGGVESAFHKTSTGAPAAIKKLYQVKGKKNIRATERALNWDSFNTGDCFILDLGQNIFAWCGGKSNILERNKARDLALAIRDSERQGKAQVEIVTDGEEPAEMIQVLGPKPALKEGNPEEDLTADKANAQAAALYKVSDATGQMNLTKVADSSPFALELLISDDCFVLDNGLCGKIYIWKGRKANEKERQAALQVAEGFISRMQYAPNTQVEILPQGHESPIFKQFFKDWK
UniProt P49589: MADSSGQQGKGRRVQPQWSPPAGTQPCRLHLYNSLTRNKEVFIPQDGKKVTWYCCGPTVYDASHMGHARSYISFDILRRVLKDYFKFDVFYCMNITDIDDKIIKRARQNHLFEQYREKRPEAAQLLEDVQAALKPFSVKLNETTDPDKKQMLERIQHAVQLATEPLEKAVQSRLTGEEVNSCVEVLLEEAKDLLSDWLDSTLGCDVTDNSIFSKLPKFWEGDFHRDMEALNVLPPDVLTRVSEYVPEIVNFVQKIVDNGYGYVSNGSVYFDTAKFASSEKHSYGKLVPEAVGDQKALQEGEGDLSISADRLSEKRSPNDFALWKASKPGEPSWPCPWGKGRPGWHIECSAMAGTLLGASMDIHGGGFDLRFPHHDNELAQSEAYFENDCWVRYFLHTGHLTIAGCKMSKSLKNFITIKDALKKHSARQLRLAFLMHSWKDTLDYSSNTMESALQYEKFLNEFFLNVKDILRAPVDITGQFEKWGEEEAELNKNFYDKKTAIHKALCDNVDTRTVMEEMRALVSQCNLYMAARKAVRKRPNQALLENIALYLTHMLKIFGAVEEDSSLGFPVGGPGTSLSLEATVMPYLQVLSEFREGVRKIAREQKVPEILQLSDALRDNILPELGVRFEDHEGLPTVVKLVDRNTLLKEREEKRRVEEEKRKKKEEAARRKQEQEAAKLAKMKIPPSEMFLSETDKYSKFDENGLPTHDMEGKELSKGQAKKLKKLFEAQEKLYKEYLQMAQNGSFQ
UniProt P52789: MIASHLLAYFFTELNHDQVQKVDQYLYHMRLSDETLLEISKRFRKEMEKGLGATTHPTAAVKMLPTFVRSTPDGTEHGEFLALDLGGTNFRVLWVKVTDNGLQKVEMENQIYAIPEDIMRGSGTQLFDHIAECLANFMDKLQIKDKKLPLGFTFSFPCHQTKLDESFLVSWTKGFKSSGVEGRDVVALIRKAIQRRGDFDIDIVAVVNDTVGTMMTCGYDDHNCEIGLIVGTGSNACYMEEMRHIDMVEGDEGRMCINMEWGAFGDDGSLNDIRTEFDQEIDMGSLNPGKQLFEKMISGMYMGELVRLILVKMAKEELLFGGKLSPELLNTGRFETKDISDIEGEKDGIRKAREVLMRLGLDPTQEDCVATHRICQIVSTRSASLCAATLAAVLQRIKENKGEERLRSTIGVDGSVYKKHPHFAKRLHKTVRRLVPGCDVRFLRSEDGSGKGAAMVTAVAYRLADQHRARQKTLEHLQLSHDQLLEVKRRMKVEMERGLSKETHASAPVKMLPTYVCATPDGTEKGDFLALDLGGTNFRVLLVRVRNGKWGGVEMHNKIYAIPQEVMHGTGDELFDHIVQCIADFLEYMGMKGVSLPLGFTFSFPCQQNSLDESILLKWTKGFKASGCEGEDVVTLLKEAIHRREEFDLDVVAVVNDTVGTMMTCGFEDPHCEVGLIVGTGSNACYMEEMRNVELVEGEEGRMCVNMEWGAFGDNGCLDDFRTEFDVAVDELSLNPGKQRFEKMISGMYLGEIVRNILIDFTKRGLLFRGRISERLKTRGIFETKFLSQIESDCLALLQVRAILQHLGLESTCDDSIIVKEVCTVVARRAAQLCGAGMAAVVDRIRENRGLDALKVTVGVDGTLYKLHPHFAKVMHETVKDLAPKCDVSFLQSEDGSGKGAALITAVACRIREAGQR
UniProt P52564: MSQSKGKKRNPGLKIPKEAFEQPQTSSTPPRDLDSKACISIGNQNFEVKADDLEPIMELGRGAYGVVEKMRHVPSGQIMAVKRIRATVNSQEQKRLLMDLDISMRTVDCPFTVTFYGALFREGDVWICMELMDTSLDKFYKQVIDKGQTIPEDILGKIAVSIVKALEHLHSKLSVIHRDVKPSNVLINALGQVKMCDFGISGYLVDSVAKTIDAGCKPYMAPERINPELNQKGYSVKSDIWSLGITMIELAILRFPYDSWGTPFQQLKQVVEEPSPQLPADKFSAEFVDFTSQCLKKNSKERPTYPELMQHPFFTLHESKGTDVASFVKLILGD
UniProt P40692: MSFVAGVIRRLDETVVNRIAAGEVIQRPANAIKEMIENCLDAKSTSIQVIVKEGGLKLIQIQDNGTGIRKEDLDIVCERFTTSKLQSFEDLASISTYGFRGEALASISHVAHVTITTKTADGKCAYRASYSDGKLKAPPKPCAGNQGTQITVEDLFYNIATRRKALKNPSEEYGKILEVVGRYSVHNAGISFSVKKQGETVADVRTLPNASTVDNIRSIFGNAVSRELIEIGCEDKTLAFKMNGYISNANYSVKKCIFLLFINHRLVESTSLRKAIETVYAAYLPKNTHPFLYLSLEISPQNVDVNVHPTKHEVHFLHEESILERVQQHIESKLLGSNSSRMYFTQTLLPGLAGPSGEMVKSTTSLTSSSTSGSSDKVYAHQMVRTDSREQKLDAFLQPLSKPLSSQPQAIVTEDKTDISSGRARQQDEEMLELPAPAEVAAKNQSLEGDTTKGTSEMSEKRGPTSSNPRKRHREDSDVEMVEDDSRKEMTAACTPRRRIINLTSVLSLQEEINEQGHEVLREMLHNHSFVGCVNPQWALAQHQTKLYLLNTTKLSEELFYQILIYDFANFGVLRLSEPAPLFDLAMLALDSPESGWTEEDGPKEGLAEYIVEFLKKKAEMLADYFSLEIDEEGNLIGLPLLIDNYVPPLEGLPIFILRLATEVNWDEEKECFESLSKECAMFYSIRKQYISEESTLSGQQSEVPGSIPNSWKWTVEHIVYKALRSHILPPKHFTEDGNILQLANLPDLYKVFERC
UniProt P38646: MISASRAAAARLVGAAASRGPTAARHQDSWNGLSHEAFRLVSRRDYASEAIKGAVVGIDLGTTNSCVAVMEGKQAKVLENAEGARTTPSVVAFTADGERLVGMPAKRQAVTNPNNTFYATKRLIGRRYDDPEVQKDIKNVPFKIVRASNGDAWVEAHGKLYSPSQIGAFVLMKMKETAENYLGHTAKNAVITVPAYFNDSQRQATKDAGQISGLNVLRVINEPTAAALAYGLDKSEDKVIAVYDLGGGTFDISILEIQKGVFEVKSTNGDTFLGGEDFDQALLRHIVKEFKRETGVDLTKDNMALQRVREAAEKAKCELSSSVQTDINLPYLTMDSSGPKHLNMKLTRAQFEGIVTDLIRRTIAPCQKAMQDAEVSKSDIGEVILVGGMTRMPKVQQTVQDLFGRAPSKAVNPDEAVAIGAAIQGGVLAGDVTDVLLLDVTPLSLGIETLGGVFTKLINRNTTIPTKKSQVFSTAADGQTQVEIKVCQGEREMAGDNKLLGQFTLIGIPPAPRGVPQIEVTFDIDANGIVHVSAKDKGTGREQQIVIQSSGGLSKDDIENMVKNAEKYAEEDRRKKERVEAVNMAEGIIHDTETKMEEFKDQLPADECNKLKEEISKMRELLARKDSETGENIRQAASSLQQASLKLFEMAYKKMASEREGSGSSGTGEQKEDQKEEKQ
UniProt P40939: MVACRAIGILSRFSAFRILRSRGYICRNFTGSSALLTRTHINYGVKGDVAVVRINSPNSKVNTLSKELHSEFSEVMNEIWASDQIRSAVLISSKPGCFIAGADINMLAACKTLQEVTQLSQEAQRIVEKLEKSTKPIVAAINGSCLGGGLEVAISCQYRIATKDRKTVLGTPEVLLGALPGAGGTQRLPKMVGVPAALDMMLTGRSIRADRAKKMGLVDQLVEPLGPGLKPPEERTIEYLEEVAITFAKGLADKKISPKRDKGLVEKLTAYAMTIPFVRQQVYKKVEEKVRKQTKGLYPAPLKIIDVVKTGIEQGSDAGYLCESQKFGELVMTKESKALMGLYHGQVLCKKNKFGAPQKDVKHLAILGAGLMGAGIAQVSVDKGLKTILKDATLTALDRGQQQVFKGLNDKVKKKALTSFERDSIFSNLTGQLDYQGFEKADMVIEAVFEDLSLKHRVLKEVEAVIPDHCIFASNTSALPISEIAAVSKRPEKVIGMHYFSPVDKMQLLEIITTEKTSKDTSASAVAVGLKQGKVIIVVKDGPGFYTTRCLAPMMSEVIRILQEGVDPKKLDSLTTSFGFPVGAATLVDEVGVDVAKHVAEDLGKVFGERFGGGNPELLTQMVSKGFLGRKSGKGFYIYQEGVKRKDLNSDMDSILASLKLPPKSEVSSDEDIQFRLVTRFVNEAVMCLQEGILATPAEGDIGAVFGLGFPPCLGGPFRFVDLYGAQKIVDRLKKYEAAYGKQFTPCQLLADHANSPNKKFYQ
UniProt P50238: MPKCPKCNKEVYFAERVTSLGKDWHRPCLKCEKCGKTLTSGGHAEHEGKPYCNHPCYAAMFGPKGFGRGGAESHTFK
UniProt P43490: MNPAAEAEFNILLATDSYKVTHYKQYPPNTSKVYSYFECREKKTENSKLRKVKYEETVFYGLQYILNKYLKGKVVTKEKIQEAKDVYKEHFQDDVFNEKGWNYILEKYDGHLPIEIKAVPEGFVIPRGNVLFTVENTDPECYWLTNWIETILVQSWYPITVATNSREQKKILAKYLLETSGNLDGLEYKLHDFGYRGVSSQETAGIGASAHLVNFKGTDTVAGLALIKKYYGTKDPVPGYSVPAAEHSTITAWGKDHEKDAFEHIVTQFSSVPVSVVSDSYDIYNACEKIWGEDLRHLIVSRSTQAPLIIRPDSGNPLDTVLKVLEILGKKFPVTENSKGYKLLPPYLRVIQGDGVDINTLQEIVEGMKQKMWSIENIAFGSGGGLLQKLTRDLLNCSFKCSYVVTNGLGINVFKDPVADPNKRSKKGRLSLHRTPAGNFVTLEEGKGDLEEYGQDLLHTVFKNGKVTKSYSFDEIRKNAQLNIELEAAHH
UniProt P40925: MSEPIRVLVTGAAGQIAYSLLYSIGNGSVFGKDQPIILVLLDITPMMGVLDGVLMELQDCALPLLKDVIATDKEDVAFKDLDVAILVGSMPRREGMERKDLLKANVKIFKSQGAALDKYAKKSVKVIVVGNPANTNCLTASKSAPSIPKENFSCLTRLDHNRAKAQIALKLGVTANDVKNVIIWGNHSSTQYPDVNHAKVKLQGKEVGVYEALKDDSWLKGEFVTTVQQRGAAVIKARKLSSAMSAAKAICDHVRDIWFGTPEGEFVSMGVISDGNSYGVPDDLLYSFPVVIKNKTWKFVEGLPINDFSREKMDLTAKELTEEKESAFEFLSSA
UniProt P40926: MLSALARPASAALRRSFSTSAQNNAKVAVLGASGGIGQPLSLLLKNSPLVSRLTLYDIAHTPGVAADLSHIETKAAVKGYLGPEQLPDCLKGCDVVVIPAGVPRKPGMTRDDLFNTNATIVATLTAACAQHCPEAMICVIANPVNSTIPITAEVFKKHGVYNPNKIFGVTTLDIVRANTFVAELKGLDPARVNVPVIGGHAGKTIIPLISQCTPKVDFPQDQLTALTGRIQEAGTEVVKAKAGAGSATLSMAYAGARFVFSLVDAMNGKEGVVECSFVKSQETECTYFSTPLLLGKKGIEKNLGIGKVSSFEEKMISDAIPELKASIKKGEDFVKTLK
UniProt P41208: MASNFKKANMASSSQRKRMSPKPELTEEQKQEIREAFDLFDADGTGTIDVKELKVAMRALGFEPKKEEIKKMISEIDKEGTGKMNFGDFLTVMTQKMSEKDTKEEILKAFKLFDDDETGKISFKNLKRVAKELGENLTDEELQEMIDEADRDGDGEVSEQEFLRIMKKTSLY

± gives the standard deviation of the averaged measurements. This is a selection; strong and weak results do not stand in their true shares. Most entries show no effect beyond the scatter of the controls.

Consider PGM1 (UniProt P36871), for which the NP40-soluble protein abundance by setting is: (concentration: 0.1mM) 1.02 ± 0.087; (concentration: 0.5mM) 1.03 ± 0.05.
As for CAPG (UniProt P40121), the NP40-soluble protein abundance is 1.03 ± 0.039 (concentration: 0.1mM) and 1.05 ± 0.048 (concentration: 0.5mM).
As for STAT5B (UniProt P51692), the NP40-soluble protein abundance was 1.04 ± 0.022 (concentration: 0.1mM) and 1.02 ± 0.017 (concentration: 0.5mM).
Consider SLC26A2 (UniProt P50443), for which the NP40-soluble protein abundance (concentration: 0.1mM) was 1.02 ± 0.11 and the NP40-soluble protein abundance (concentration: 0.5mM) was found to be 0.973 ± 0.11.
Take SMS (UniProt P52788): the NP40-soluble protein abundance reads like this: (concentration: 0.1mM) 1.04 ± 0.025; (concentration: 0.5mM) 1.02 ± 0.067.
For the target UniProt P36507, the NP40-soluble protein abundance by setting is: (concentration: 0.1mM) 1.01 ± 0.015; (concentration: 0.5mM) 1.01 ± 0.055.
In the same order, the values of MCM2 (UniProt P49736) are 1.02 ± 0.066 and 1.01 ± 0.056.
Regarding UniProt P48739 and related entries, the NP40-soluble protein abundance is, setting by setting: (concentration: 0.1mM) 1.03 ± 0.085; (concentration: 0.5mM) 1.05 ± 0.057.
ALDH9A1 (UniProt P49189): the NP40-soluble protein abundance runs as follows: (concentration: 0.1mM) 1.03 ± 0.066; (concentration: 0.5mM) 1.04 ± 0.06.
Turning to UniProt P42684 and related entries, the NP40-soluble protein abundance came to 0.972 ± 0.073 (concentration: 0.1mM) and 1.079 ± 0.0085 (concentration: 0.5mM).
Turning to UniProt P49589 and related entries, the NP40-soluble protein abundance runs as follows: (concentration: 0.1mM) 1.04 ± 0.044; (concentration: 0.5mM) 1.03 ± 0.052.
Consider RABIF (UniProt P47224), for which the NP40-soluble protein abundance runs as follows: (concentration: 0.1mM) 1.06 ± 0.062; (concentration: 0.5mM) 0.993 ± 0.044.
ZAP70 (UniProt P43403): the NP40-soluble protein abundance was found to be 1.06 ± 0.077 (concentration: 0.1mM) and 1.08 ± 0.082 (concentration: 0.5mM).
UniProt P52789 and related entries: the NP40-soluble protein abundance by setting is: (concentration: 0.1mM) 1.03 ± 0.02; (concentration: 0.5mM) 1.03 ± 0.027.
For EPS15 (UniProt P42566), in that order: 1 ± 0.04 and 0.998 ± 0.04.
As to TXLNA (UniProt P40222), the NP40-soluble protein abundance was found to be 0.986 ± 0.028 (concentration: 0.1mM) and 0.992 ± 0.076 (concentration: 0.5mM).
Take ARL2 (UniProt P36404): the NP40-soluble protein abundance turned out to be 1.04 ± 0.084 (concentration: 0.1mM) and 1.06 ± 0.064 (concentration: 0.5mM).
As for PSMB2 (UniProt P49721), the NP40-soluble protein abundance runs as follows: (concentration: 0.1mM) 0.959 ± 0.035; (concentration: 0.5mM) 0.962 ± 0.026.
In the same order, the values of NUP153 (UniProt P49790) are 0.982 ± 0.016 and 0.993 ± 0.07.
In the same order, the values of UniProt P36956 and related entries are 1.03 ± 0.1 and 0.974 ± 0.086.
Take SSR4 (UniProt P51571): the NP40-soluble protein abundance runs as follows: (concentration: 0.1mM) 1.06 ± 0.065; (concentration: 0.5mM) 1.04 ± 0.06.
Consider UniProt P52564, for which the NP40-soluble protein abundance runs as follows: (concentration: 0.1mM) 1.05 ± 0.056; (concentration: 0.5mM) 1.04 ± 0.042.
In the same order, the values of MLH1 (UniProt P40692) are 1.21 ± 0.025 and 1.32 ± 0.037.
For RPL27A (UniProt P46776), in that order: 0.912 ± 0.11 and 0.923 ± 0.14.
In the case of HSPA9 (UniProt P38646), the NP40-soluble protein abundance stood at 0.881 ± 0.07 (concentration: 0.1mM) and 1 ± 0.1 (concentration: 0.5mM).
As to HADHA (UniProt P40939), the NP40-soluble protein abundance is, setting by setting: (concentration: 0.1mM) 0.998 ± 0.043; (concentration: 0.5mM) 1.01 ± 0.026.
Regarding SLC1A4 (UniProt P43007), the NP40-soluble protein abundance was 1.02 ± 0.054 (concentration: 0.1mM) and 0.996 ± 0.069 (concentration: 0.5mM).
For CRIP1 (UniProt P50238), in that order: 0.946 ± 0.091 and 0.949 ± 0.073.
For UniProt P49750-3|P49750-4, in that order: 1.01 ± 0.022 and 1.08 ± 0.031.
Take PSMD7 (UniProt P51665): the NP40-soluble protein abundance (concentration: 0.1mM) amounted to 0.991 ± 0.061 and the NP40-soluble protein abundance (concentration: 0.5mM) is 0.987 ± 0.032.
As for UniProt P49407-2|P49407, the NP40-soluble protein abundance reads like this: (concentration: 0.1mM) 1.02 ± 0.021; (concentration: 0.5mM) 1.031 ± 0.005.
For CASP3 (UniProt P42574), in that order: 1.04 ± 0.11 and 1.03 ± 0.061.
For the target PTDSS1 (UniProt P48651), the NP40-soluble protein abundance by setting is: (concentration: 0.1mM) 0.917 ± 0.021; (concentration: 0.5mM) 1.06 ± 0.058.
In the case of UniProt P48960 and related entries, the NP40-soluble protein abundance turned out to be 0.9763 ± 0.0084 (concentration: 0.1mM) and 0.916 ± 0.05 (concentration: 0.5mM).
In the same order, the values of PSMB10 (UniProt P40306) are 0.963 ± 0.041 and 0.971 ± 0.039.
As to FASN (UniProt P49327), the NP40-soluble protein abundance (concentration: 0.1mM) was found to be 1.05 ± 0.082 and the NP40-soluble protein abundance (concentration: 0.5mM) turned out to be 1.02 ± 0.017.
Take UniProt P50219 and related entries: the NP40-soluble protein abundance reads like this: (concentration: 0.1mM) 0.83 ± 0.21; (concentration: 0.5mM) 0.855 ± 0.17.
In the same order, the values of ANP32A (UniProt P39687) are 0.819 ± 0.13 and 0.821 ± 0.15.
As to UniProt P50053-2, the NP40-soluble protein abundance came out at 1.04 ± 0.011 (concentration: 0.1mM) and 1.03 ± 0.062 (concentration: 0.5mM).
Consider UniProt P36542 and related entries, for which the NP40-soluble protein abundance worked out at 0.995 ± 0.039 (concentration: 0.1mM) and 0.985 ± 0.019 (concentration: 0.5mM).
Take PPOX (UniProt P50336): the NP40-soluble protein abundance by setting is: (concentration: 0.1mM) 1.13 ± 0.15; (concentration: 0.5mM) 1.02 ± 0.073.
In the same order, the values of NAMPT (UniProt P43490) are 1.05 ± 0.087 and 1.06 ± 0.1.
For the target UniProt P45974 and related entries, the NP40-soluble protein abundance by setting is: (concentration: 0.1mM) 1.04 ± 0.059; (concentration: 0.5mM) 1.03 ± 0.06.
With PTPN9 (UniProt P43378), the NP40-soluble protein abundance by setting is: (concentration: 0.1mM) 1.06 ± 0.071; (concentration: 0.5mM) 1.11 ± 0.078.
UniProt P41229 and related entries: the NP40-soluble protein abundance is, setting by setting: (concentration: 0.1mM) 1.03 ± 0.018; (concentration: 0.5mM) 1.02 ± 0.02.
For NOTCH1 (UniProt P46531), the NP40-soluble protein abundance stood at 1.01 ± 0.018 (concentration: 0.1mM) and 0.976 ± 0.067 (concentration: 0.5mM).
As for UniProt P49590 and related entries, the NP40-soluble protein abundance came to 1.04 ± 0.057 (concentration: 0.1mM) and 1.03 ± 0.076 (concentration: 0.5mM).
As for UniProt P50548 and related entries, the NP40-soluble protein abundance was 1.03 ± 0.18 (concentration: 0.1mM) and 1.04 ± 0.074 (concentration: 0.5mM).
Consider MTOR (UniProt P42345), for which the NP40-soluble protein abundance is, setting by setting: (concentration: 0.1mM) 1.04 ± 0.037; (concentration: 0.5mM) 1.04 ± 0.033.
For RPL14 (UniProt P50914), in that order: 0.917 ± 0.04 and 0.92 ± 0.084.
Consider SRP14 (UniProt P37108), for which the NP40-soluble protein abundance (concentration: 0.1mM) is 0.853 ± 0.07 and the NP40-soluble protein abundance (concentration: 0.5mM) was determined as 0.899 ± 0.14.
With GNPDA1 (UniProt P46926), the NP40-soluble protein abundance is, setting by setting: (concentration: 0.1mM) 0.997 ± 0.12; (concentration: 0.5mM) 0.9947 ± 0.0089.
Take UniProt P46020-2: the NP40-soluble protein abundance (concentration: 0.1mM) is 1.05 ± 0.033 and the NP40-soluble protein abundance (concentration: 0.5mM) is 1.05 ± 0.069.
For UniProt P36954, in that order: 0.95 ± 0.038 and 1.04 ± 0.024.
Regarding UQCRFS1 (UniProt P47985), the NP40-soluble protein abundance (concentration: 0.1mM) is 1.06 ± 0.097 and the NP40-soluble protein abundance (concentration: 0.5mM) came out at 1.06 ± 0.083.
With RGS19 (UniProt P49795), the NP40-soluble protein abundance runs as follows: (concentration: 0.1mM) 0.972 ± 0.036; (concentration: 0.5mM) 0.984 ± 0.083.
For the target CRKL (UniProt P46109), the NP40-soluble protein abundance reads like this: (concentration: 0.1mM) 1.03 ± 0.025; (concentration: 0.5mM) 1.01 ± 0.018.
In the case of GNAQ (UniProt P50148), the NP40-soluble protein abundance runs as follows: (concentration: 0.1mM) 1.04 ± 0.13; (concentration: 0.5mM) 1.05 ± 0.074.
UniProt P40925 and related entries: the NP40-soluble protein abundance runs as follows: (concentration: 0.1mM) 1 ± 0.084; (concentration: 0.5mM) 1.03 ± 0.061.
PIK3CG (UniProt P48736): the NP40-soluble protein abundance was found to be 0.998 ± 0.067 (concentration: 0.1mM) and 0.961 ± 0.051 (concentration: 0.5mM).
Turning to MDH2 (UniProt P40926), the NP40-soluble protein abundance by setting is: (concentration: 0.1mM) 0.996 ± 0.046; (concentration: 0.5mM) 1.01 ± 0.055.
For the target DHPS (UniProt P49366), the NP40-soluble protein abundance by setting is: (concentration: 0.1mM) 1.03 ± 0.03; (concentration: 0.5mM) 1.03 ± 0.03.
For the target CETN2 (UniProt P41208), the NP40-soluble protein abundance by setting is: (concentration: 0.1mM) 0.767 ± 0.22; (concentration: 0.5mM) 0.759 ± 0.22.

Values taken from the supplement of paper PMC6411743.
